Patent publication US20260200997A1, “AFFINITY AGENTS” (Repligen Corporation, priority 2022, published 2026)
No constants are given. Whether binding was seen depends on the method and setting. Some results given as binding are weak or reduced against the parent protein; the word gives no strength.

Sequences of proteins named here, by UniProt entry; tags and fusion partners are left off. A change or cut given only in a name is not applied to a line headed by its entry.
UniProt P00738: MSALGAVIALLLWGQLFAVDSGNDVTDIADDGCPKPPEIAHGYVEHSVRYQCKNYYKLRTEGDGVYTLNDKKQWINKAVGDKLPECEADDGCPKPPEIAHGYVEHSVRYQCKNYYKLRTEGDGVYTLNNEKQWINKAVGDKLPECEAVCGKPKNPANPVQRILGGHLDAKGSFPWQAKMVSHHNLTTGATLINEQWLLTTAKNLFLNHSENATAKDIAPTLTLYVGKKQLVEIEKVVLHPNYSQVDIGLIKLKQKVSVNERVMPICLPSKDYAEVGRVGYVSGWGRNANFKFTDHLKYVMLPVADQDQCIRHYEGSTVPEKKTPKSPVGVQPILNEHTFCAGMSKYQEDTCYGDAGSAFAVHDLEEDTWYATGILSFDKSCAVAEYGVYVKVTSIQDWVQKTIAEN

Target: Haptoglobin protein (UniProt P00738)
Experiment: equilibrium batch binding to ligand-conjugated resin, 1.5 mg/mL haptoglobin, 60 min, A280 of unbound

| Binder | binding |
| --- | --- |
| SEQ ID NO. 88 (designed binder) ligand: MVDAKFDKELEEARAEIERLPNLTEHQRRYFIFALRHDPSHSAHLLAAAKRHNDDQAPKAAAHHHHHHC | binds |
| SEQ ID NO. 96 (designed binder) ligand: MVDAKFDKELEEARAEIERLPNLTEHQRRYFIYALRHDPSQSALLLAVAKRHNDHQAPKAAAHHHHHHC | binds |
| SEQ ID NO. 86 (designed binder) ligand: MVDAKFDKELEEARAEIERLPNLTEHQRRHFILALRDDPSDSAALLAIAKAWNDRQAPKAAAHHHHHHC | binds |
| SEQ ID NO. 91 (designed binder) ligand: MVDAKFDKELEEARAEIERLPNLTEHQRRHFIHALRHDPSDSAALLAIAKAWNDRQAPKAAAHHHHHHC | binds |
| SEQ ID NO. 92 (designed binder) ligand: MVDAKFDKELEEARAEIERLPNLTEHQRRHFILALRQDPSDSAALLAIAKAWNDRQAPKAAAHHHHHHC | binds |
| SEQ ID NO. 87 (designed binder) ligand: MVDAKFDKELEEARAEIERLPNLTEQQRRNFIHALRQDPSDSAALLAIAKAWNDRQAPKAAAHHHHHHC | binds |
| SEQ ID NO. 89 (designed binder) ligand: MVDAKFDKELEEARAEIERLPNLTEHQRRHFIHALRQDPSDSAALLAIAKAWNDRQAPKAAAHHHHHHC | binds |

Now from value to binder:

| binding | Binder |
| --- | --- |
| binds | SEQ ID NO. 90 (designed binder) ligand: MVDAKFDKELEEARAEIERLPNLTEQQRRHFIHALRHDPSDSAALLAITKAWNDRQAPKAAAHHHHHHC |
| binds | SEQ ID NO. 94 (designed binder) ligand: MVDAKFDKELEEARAEIERLPNLTEQQRRNFIHALRRDPSDSAALLAIAKAWNDRQAPKAAAHHHHHHC |
| binds | SEQ ID NO. 95 (designed binder) ligand: MVDAKFDKELEEARAEIERLPNLTEHQRRHFIYALRHDPSDSAALLAIAKAWNDRLAPKAAAHHHHHHC |
| binds | SEQ ID NO. 93 (designed binder) ligand: MVDAKFDKELEEARAEIERLPNLTEQQRRSFIHALRQDPSDSAALLAIAKAWNDRQAPKAAAHHHHHHC |
